Measured data: PubChem BioAssay AID1671195 (Yale University, 2021)

Aim: 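Knockdowns that increase or decrease uptake of fluorescent LDL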 (primary screen)
Cell system: human Huh7 hepatoma cells
Reagent: siRNA pool against human genes, 18 nM
Duration: about 2 to 2.5 days of knockdown, then 8 h LDL uptake
Conditions: DiI-labelled LDL at 30 µg/ml for 8 h, in lipoprotein-deficient serum medium
Read-out: 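Fluorescent LDL signal imaged in cells, scaled to the plate median, robust z-score for each replicate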
Scale: robust z-score: higher = more LDL uptake after knockdown
Hit rule: 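a gene counts as active if at least two replicate z-scores exceed ±2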
This is one part, drawn at random, of about 22,000 deposited reagents. About 1,510 of all reagents (6.9%) were called active. 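Active includes knockdowns raising or lowering LDL uptake; positive z-scores mean more uptake, negative mean less.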 A number with no mark means an inactive call. No sequences are given here.

gene knocked down | robust z-score, replicate 1 | robust z-score, replicate 2 | robust z-score, replicate 3
NOXA1 (NADPH oxidase activator 1) | -0.183 | 0.12 | -0.433
BLOC1S5 (biogenesis of lysosomal organelles complex 1 subunit 5) | 1.61 | 0.847 | 1.74
LOC440780 (retired record) | 2.03 (active) | 2.06 | 1.98
ACKR5 (atypical chemokine receptor 5) | -2.11 (active) | -1.91 | -2.04
PSG7 (pregnancy specific beta-1-glycoprotein 7) | -0.206 | 0.0424 | 0.993
PINX1 (PIN2 (TERF1) interacting telomerase inhibitor 1) | 0.46 | 0.0616 | 1.98
NPPB (natriuretic peptide B) | 2.48 | 1.56 | 0.517
GNAZ (G protein subunit alpha z) | 0.248 | 0.122 | 0.683
PPP1R3C (protein phosphatase 1 regulatory subunit 3C) | 1.58 | 0.861 | 1
LINC00342 (long independently transcribed non-coding RNA 342) | -0.534 | -0.594 | -1.34
PCBP1-AS1 (PCBP1 antisense RNA 1) | -0.108 | -0.483 | -0.058
LOC440835 (retired record) | 0.409 | 0.247 | 0.488
GGN (gametogenetin) | 0.481 | 1.34 | 0.959
GRID2 (glutamate ionotropic receptor delta type subunit 2) | -1.51 | -1.32 | -1.44
IRF7 (interferon regulatory factor 7) | -0.529 | -0.272 | -0.177
OSR2 (odd-skipped related transciption factor 2) | -0.935 | -0.078 | -0.47
SCG5 (secretogranin V) | -0.881 | -0.461 | -0.59
AQR (aquarius intron-binding spliceosomal factor) | -1.29 | 0.279 | -0.0232
IDI2 (isopentenyl-diphosphate delta isomerase 2) | -0.142 | 0.673 | -0.354
LINC02869 (long independently transcribed non-coding RNA 2869) | 0.963 | 1.18 | 1.32
LINC00639 (long independently transcribed non-coding RNA 639) | 6.25 (active) | 7.33 | 5.62
PLPP2 (phospholipid phosphatase 2) | -0.506 | 0.041 | -0.425
LOC400551 (retired record) | 0.938 | 1.43 | 1.4
MCCC1 (methylcrotonyl-CoA carboxylase subunit 1) | 1.11 | 1.3 | 1.05
VWDE (von Willebrand factor D and EGF domains) | 0.52 | 0.71 | 0.457
SLC25A34 | 0.701 | -1.01 | -2.97
KCNJ3 (potassium inwardly rectifying channel subfamily J member 3) | 0.849 | -0.124 | 1.31

Laid out differently: 3 of the entries above.
| gene knocked down | robust z-score, replicate 1 | robust z-score, replicate 2 | robust z-score, replicate 3 |
| --- | --- | --- | --- |
| GNAZ (G protein subunit alpha z) | 0.248 | 0.122 | 0.683 |
| PPP1R3C (protein phosphatase 1 regulatory subunit 3C) | 1.58 | 0.861 | 1 |
| LINC00342 (long independently transcribed non-coding RNA 342) | -0.534 | -0.594 | -1.34 |

Next records follow:
gene knocked down | robust z-score, replicate 1 | robust z-score, replicate 2 | robust z-score, replicate 3
PPWD1 (peptidylprolyl isomerase domain and WD repeat containing 1) | -0.558 | -0.259 | -0.76
LINC02389 (long independently transcribed non-coding RNA 2389) | -0.0437 | -1.42 | -1.34
PIP5K1A (phosphatidylinositol-4-phosphate 5-kinase type 1 alpha) | 1.04 | -0.914 | 0.8
LOC442009 (retired record) | 0.41 | 0.644 | 0.579
EPB41L4B (erythrocyte membrane protein band 4.1 like 4B) | 0.55 | 1.8 | 1.13
LOC93429 | -1.14 | -0.661 | -1.15
FAM181B (family with sequence similarity 181 member B) | -0.797 | -0.719 | -0.816
PPP1R3F (protein phosphatase 1 regulatory subunit 3F) | 1.55 | 1.17 | 1.34
EEF1AKMT1 (EEF1A lysine methyltransferase 1) | -0.203 | -0.285 | -0.254
IQSEC2 (IQ motif and Sec7 domain ArfGEF 2) | -0.801 | 0.225 | -0.293
NTN5 (netrin 5) | -0.624 | -0.722 | -0.366
GLRA3 (glycine receptor alpha 3) | 1.05 | 0.848 | 0.507
LOC440760 (retired record) | 2.96 (active) | 2.48 | 2.75
RPS28 (ribosomal protein S28) | -0.895 | -0.482 | -1.23
ATG4A (autophagy related 4A cysteine peptidase) | 0.398 | 0.788 | 0.294
COX7A1 (cytochrome c oxidase subunit 7A1) | 0.47 | 0.43 | 0.111
LOC441006 (retired record) | -0.161 | -0.53 | -0.78
STK11 (serine/threonine kinase 11) | 0.216 | 0.318 | 0.467
S100A2 (S100 calcium binding protein A2) | -1.89 | -1.83 | -1.9
COX7B2 (cytochrome c oxidase subunit 7B2) | -0.611 | -0.726 | -0.158
KCTD14 (potassium channel tetramerization domain containing 14) | -0.918 | -0.868 | -0.987
LOC441496 (retired record) | -1.83 | -2.13 | -1.84
INO80 (INO80 complex ATPase subunit) | 0.455 | 0.732 | 0.565
PLVAP (plasmalemma vesicle associated protein) | 1.95 | 0.493 | 1.17
CDONP2 (CDON pseudogene 2) | -0.352 | -0.027 | 0.0478
MAPKBP1 (mitogen-activated protein kinase binding protein 1) | -0.712 | -1.83 | -0.891
TENT2 (terminal nucleotidyltransferase 2) | -0.512 | 0.329 | 0.699
ZNF266 (zinc finger protein 266) | -0.163 | -0.299 | -0.322
EPG5 (ectopic P-granules 5 autophagy tethering factor) | 0.126 | 0.424 | 0.659
NT5C1A (5'-nucleotidase, cytosolic IA) | -0.428 | -0.0179 | 0.0483
SREK1IP1 (SREK1 interacting protein 1) | 0.895 | 1.03 | 1.19
PCMTD2 | -0.968 | -0.91 | -1.17
BLOC1S4 (biogenesis of lysosomal organelles complex 1 subunit 4) | 0.222 | 0.248 | 0.247
FASN (fatty acid synthase) | 1.16 | 1.16 | 1.2
FBXL7 (F-box and leucine rich repeat protein 7) | -0.515 | 2.15 | -1.17
LOC401859 (retired record) | -0.363 | -0.211 | -0.118
LOC400201 (retired record) | 2.09 (active) | 3.18 | 2.73
PPP4R1L (protein phosphatase 4 regulatory subunit 1 like (pseudogene)) | 0.267 | 0.385 | 3.35
ATXN1 (ataxin 1) | -0.201 | -0.362 | -0.483
ARMC9 (armadillo repeat containing 9) | -1.58 | -1.24 | -0.77
BIN2 (bridging integrator 2) | -2.46 (active) | -2.74 | -2.38
